PubChem BioAssay AID2685 (National Center for Advancing Translational Sciences (NCATS), 2010)
Some of the results follow. Further columns of the screen follow, without active or inactive calls. Compounds called inactive in the main read-out are mostly missing here. Words in brackets tell the shape of the fitted curve; partial curves, single points and poor fits give uncertain potencies.

Assay: qHTS Assay for Lipid Storage Modulators in Drosophila S3 Cells;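 on cell number change: cells counted by Cell Tracker Red CMTPX staining in the red channel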
Settings: BODIPY lipid droplet fluorescence, 18-24 h; for cell number change: measured here: cell count max response, cells fed with added oleic acid
Summary of the method: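 Laser-scanning cytometry quantifies lipid droplet accumulation (500–530 nm total intensity; droplet/cell object ratio) in oleic acid-fed (400 uM added) Drosophila S3 cells treated with a concentration series. 20 uM Triacsin C defined 100% inhibition.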

[1] = measured here: cell number channel AC50, cells fed with added oleic acid
[2] = measured here: lipid fluorescence (Fed channel) AC50, cells fed with added oleic acid

| SMILES | AC50 [1] | AC50 [2] | cell number change [%] |
| --- | --- | --- | --- |
| COc1ccc(S(=O)(=O)Cc2ccc(C(=O)N3CCC4(CC3)OCCO4)o2)cc1 | 2.31 µM [rising, partial curve] | 6.51 µM [rising, single point] |  |
| COc1ccc(CCNC(=O)c2c(N)n(CCN3CCOCC3)c3nc4ccccc4nc23)cc1 | 29.1 µM [falling, single point] | 6.51 µM [rising, single point] | -61 |
| CCCCN(CC)CCNS(=O)(=O)c1ccc2c(c1)oc(=O)n2C | 0.116 µM [falling, full curve, poor fit] |  |  |
| Cn1c(C(=O)N2CCC(C(=O)N3CCC4(CC3)OCCO4)CC2)cc2sccc21 |  | 0.092 µM [falling, full curve, poor fit] | 14.2 |
| COc1ccc(CNC(C)Cc2cccs2)cc1 (stereo unspecified) |  |  | -25.3 |
| O=[N+]([O-])c1cccc(C2N3CCCN23)c1 (stereo unspecified) |  |  | -42.1 |
| COC(=O)C(C)Oc1cc(C)cc2oc(=O)c3c(c12)CCCC3 (stereo unspecified) | 29.1 µM [rising, single point] | 6.51 µM [rising, single point] | 88.2 |
| O=P(NS(=O)(=O)c1ccccc1)(Oc1ccccc1)Oc1ccccc1 |  | 0.0517 µM [falling, full curve] | -12.1 |
| Cc1c(C(=O)N2CCC3(CC2)OCCO3)sc2ncnc(N3CCN(c4ccccn4)CC3)c12 | 6.51 µM [rising, partial curve] | 5.17 µM [rising, partial curve] | 319 |
| COc1ccc(-n2c(O)c(C=Nc3c(C)n(C)n(-c4ccccc4)c3=O)c(=O)[nH]c2=O)cc1 |  | 1.16 µM [falling, full curve] | 6.85 |
| COc1ccc(-c2nc3ccccc3c(=O)n2-c2cccnc2)cc1 |  |  | 5.58 |
| O=C(COc1ccc(Br)cc1)N1CCN(Cc2c[nH]c3ccccc23)CC1 | 4.61 µM [rising, single point] | 5.8 µM [rising, partial curve] |  |
| CN(C)c1ccc(/C=C/C=C2/C(=O)NC(=O)N(c3ccccc3)C2=O)cc1 | 20.6 µM [falling, single point] | 0.58 µM [falling, partial curve] | -91.5 |
| CC(C)OP(=O)(OC(C)C)C(O)c1cccnc1 (stereo unspecified) | 0.651 µM [falling, full curve, poor fit] | 7.31 µM [falling, partial curve] | -27.4 |
| CCOC(=O)N(CC)c1ccc(C(O)(C(=O)OC)C(F)(F)F)cc1 (stereo unspecified) |  | 4.11 µM [rising, full curve] | 12.1 |
| C[N+](C)(C)CC(=O)Nc1ccc(Cl)cc1C(=O)c1ccccc1 | 14.6 µM [falling, partial curve, poor fit] |  | -32.4 |
| Cn1c(=O)oc2cc(S(=O)(=O)NCCC(=O)N3CCc4ccccc4C3)ccc21 | 16.4 µM [rising, partial curve] |  |  |
| CC(=NCCO)c1c(O)n(C)c(=O)n(C)c1=O |  | 2.91 µM [rising, single point] | 8.14 |
| CCN(CC)C(=O)c1ccc2c(c1)C1C=CCC1C(C(=O)O)N2 (stereo unspecified) |  | 29.1 µM [rising, single point] | 7.75 |
| COC(=O)C1=C(c2ccc(OC)c(OC)c2)C[C@@H]2CC[C@H]1N2C(=O)NC(C)C |  | 2.59 µM [rising, full curve] | 11.2 |
| CCC(=NCCN1CCOCC1)c1c(O)n(C2CCCCC2)c(=O)[nH]c1=O |  |  | -8.86 |
| Cc1nn(-c2ccccc2)c(Cl)c1C1C(C#N)=C(N)Oc2c1c(=O)oc1ccccc21 (stereo unspecified) |  | 0.651 µM [rising, full curve] | -16.9 |
| COc1ccc(S(=O)(=O)NCc2ccc(C(=O)N3CCC4(CC3)OCCO4)cc2)cc1 |  | 0.13 µM [falling, full curve, poor fit] | -1.3 |
| CC(C)CCn1c(N)c(C(=O)OCC2CCCO2)c2nc3ccccc3nc21 (stereo unspecified) | 0.411 µM [rising, full curve] | 0.206 µM [rising, full curve] |  |
| CN1CSC(=S)N(C)C1 |  | 4.11 µM [falling, partial curve] | -22.3 |
| N#CC(Br)Br |  | 14.6 µM [falling, partial curve, poor fit] | 6.92 |
| CC(C)c1ccc(OCC(=O)N2CCCN(C)CC2)cc1 |  | 29.1 µM [rising, single point] | 7.92 |

Molecules shown so far containing a thiophene ring, fused or not, in the order listed:

| SMILES | AC50 [1] | AC50 [2] | cell number change [%] |
| --- | --- | --- | --- |
| Cn1c(C(=O)N2CCC(C(=O)N3CCC4(CC3)OCCO4)CC2)cc2sccc21 |  | 0.092 µM [falling, full curve, poor fit] | 14.2 |
| COc1ccc(CNC(C)Cc2cccs2)cc1 (stereo unspecified) |  |  | -25.3 |
| Cc1c(C(=O)N2CCC3(CC2)OCCO3)sc2ncnc(N3CCN(c4ccccn4)CC3)c12 | 6.51 µM [rising, partial curve] | 5.17 µM [rising, partial curve] | 319 |

Further results

| SMILES | AC50 [1] | AC50 [2] | cell number change [%] |
| --- | --- | --- | --- |
| O=P(Oc1ccccc1)(Oc1ccccc1)C(O)c1ccccc1 (stereo unspecified) |  | 0.00461 µM [rising, full curve, poor fit] | 1.42 |
| COC(=O)c1ccc(NC(=O)NC(=O)Oc2ccccc2)cc1 | 0.0206 µM [rising, full curve, poor fit] | 0.058 µM [rising, full curve, poor fit] | 30.3 |
| O=c1[nH]c(=O)n(-c2cccc3ccccc23)c(O)c1C=NCc1ccc2c(c1)OCO2 | 0.206 µM [rising, full curve, poor fit] |  | 10.8 |
| COc1ccc(C(=O)C2CCCN(Cc3cnc(C)s3)C2)cc1OC (stereo unspecified) |  | 32.6 µM [falling, single point] | -6.98 |
| COC(=O)C1=C(c2ccc(OC)c(OC)c2)C[C@@H]2CC[C@H]1N2C(=O)NC1Cc2ccccc2C1 |  | 6.51 µM [falling, single point] | 13.3 |
| COc1ccc(CCNCc2ccccc2)cc1 |  | 8.2 µM [rising, partial curve] | 22.6 |
| CN1CCC(O)(c2cccs2)C(C(=O)c2cccs2)C1 (stereo unspecified) | 11.6 µM [falling, partial curve, poor fit] | 4.11 µM [falling, single point] | -39.6 |
| C[C@@H]1O[C@@H](O[C@@H]2C=C3CC[C@@H]4C(CC[C@]5(C)[C@@H](c6ccc(=O)oc6)CC[C@]45O)[C@@]3(C)CC2)[C@H](O)[C@H](O)[C@H]1O (stereo partly specified) |  | 29.1 µM [falling, single point] | -7.34 |
| Cc1ccccc1-n1c(O)c(/C=N/N2CCOCC2)c(=O)[nH]c1=S | 0.461 µM [rising, full curve, poor fit] |  | -7.94 |
| O=C(CCc1ccccc1)N1C[C@H]2C[C@@H](C1)c1cccc(=O)n1C2 |  | 29.1 µM [rising, single point] | 16.2 |
| COc1ccc(C(c2ccc(OC)cc2)C(Cl)(Cl)Cl)cc1 | 1.16 µM [falling, partial curve, poor fit] | 0.651 µM [falling, partial curve] | 4.01 |
| CN1CCN(c2nc(Cl)ncc2F)CC1 |  | 0.00517 µM [falling, full curve, poor fit] | -2.1 |
| Cn1c(O)c(C=NC2CC3CCC2(C)C3(C)C)c(=O)[nH]c1=O (stereo unspecified) |  | 1.3 µM [falling, full curve, poor fit] | 14.2 |
| COc1ccc(CCn2c(O)c(C=NCCCO)c(=O)[nH]c2=O)cc1OC |  | 0.00461 µM [rising, full curve, poor fit] | 6.39 |
| CN(Cc1ccccc1)C(=C(Cl)Cl)/C(=C1/NCCN1Cc1ccc(Cl)nc1)[N+](=O)[O-] |  | 0.82 µM [rising, full curve] | 3.09 |
| Cc1ccc(-n2c(O)c(C=Nc3ccc(Br)cn3)c(=O)[nH]c2=O)cc1 | 0.731 µM [falling, full curve, poor fit] |  | -46.1 |
| O=S(=O)(c1ccccc1)N1CC1c1ccccc1 (stereo unspecified) | 20.6 µM [rising, single point] | 3.66 µM [falling, full curve, poor fit] | 74.2 |
| c1ccc2sc(C3CCNCC3)nc2c1 |  | 0.184 µM [falling, full curve, poor fit] | 8.07 |
| CCC(=NCc1ccco1)c1c(O)n(C)c(=O)n(C)c1=O | 1.3 µM [rising, full curve, poor fit] | 0.92 µM [rising, full curve] | 33 |
| O=C(Cc1ccccc1)Oc1ccccc1N1C(=O)CCC1=O | 29.1 µM [falling, single point] | 29.1 µM [falling, single point] | -83.3 |
| CCC(=O)c1cc(F)c(N2CCN(CC)CC2)cc1C | 2.91 µM [falling, full curve, poor fit] | 0.366 µM [rising, full curve] | -29 |
| CCOC(=O)N(c1ccccc1)P1(=S)OCCO1 | 29.1 µM [rising, single point] | 20.6 µM [rising, partial curve] | 39.2 |
| O=C(c1cc(C(=O)NCc2ccccc2)c(=O)n(Cc2ccccc2)c1)c1cc(Cl)ccc1O | 0.731 µM [falling, single point] | 0.00461 µM [rising, full curve, poor fit] | 15.3 |
| N#CC1=C(N)Oc2c(c(=O)oc3ccccc23)C1c1ccccc1OC(=O)c1cccs1 (stereo unspecified) |  |  | -10.7 |
| CC(C)CCC1(CN2CCCC2=O)C(=O)NC(=O)NC1=O | 14.6 µM [falling, single point] | 20.6 µM [falling, single point] | -48.6 |
| O=C1NC(=O)N(Cc2ccco2)C(=O)/C1=C/c1cccn1CCOc1ccccc1Cl |  | 14.6 µM [falling, partial curve, poor fit] | -25.1 |
| O=c1[nH]c(O)c(/C=C2/C=CC(c3cc(Cl)ccc3Cl)=N2)c(=O)[nH]1 |  | 4.61 µM [falling, single point] | 0.915 |
